The source of these data is PMC7449975.

Chains of the proteins cited; added tags and fusions are not shown. Lines headed by an entry give the natural chain unless they say otherwise; changes in a name come on top. A line that says so, or that is headed by a name, gives the form on record, which may keep a tag or linker.
UniProt Q9NVP2: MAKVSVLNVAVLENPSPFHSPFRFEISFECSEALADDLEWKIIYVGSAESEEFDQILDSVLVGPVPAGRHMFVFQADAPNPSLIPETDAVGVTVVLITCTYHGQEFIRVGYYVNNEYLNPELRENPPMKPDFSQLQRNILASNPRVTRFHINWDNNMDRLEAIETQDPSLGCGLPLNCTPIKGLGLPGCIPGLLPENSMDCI
UniProt P50750: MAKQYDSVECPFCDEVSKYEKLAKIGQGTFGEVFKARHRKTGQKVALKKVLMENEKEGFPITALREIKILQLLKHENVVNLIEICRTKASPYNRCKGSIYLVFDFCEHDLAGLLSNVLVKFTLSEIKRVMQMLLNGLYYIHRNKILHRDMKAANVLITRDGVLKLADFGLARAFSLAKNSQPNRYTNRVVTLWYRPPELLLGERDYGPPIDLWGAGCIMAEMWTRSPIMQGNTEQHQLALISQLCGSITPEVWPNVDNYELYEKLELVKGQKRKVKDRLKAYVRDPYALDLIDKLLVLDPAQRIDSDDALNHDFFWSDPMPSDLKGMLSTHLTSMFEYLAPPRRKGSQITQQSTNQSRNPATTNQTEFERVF
UniProt P30153: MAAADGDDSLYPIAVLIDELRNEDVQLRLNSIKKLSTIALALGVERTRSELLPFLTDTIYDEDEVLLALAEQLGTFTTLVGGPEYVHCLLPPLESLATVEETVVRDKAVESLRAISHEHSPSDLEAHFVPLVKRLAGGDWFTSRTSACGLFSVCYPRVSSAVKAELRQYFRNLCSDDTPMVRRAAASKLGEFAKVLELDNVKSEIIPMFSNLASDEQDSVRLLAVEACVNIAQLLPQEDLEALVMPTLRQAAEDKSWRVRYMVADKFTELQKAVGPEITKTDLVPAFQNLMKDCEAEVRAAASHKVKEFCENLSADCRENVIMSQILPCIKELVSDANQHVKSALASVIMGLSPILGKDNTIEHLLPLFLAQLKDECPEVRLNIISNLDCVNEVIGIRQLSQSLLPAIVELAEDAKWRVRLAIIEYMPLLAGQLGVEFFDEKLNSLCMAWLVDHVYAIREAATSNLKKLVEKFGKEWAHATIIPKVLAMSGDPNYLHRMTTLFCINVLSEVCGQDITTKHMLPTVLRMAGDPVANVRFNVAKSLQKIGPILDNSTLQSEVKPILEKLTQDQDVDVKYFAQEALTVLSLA
Isoform 2 of Y-box-binding protein 3 (P16989-2, form named): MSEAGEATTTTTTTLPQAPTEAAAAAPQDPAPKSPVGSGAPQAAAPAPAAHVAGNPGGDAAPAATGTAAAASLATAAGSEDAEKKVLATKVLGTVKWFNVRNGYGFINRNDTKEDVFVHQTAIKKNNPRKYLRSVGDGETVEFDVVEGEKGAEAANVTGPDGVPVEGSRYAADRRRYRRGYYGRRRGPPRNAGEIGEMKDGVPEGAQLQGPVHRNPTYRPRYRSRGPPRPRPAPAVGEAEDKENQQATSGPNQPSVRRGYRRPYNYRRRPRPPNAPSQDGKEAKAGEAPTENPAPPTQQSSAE
UniProt P26641: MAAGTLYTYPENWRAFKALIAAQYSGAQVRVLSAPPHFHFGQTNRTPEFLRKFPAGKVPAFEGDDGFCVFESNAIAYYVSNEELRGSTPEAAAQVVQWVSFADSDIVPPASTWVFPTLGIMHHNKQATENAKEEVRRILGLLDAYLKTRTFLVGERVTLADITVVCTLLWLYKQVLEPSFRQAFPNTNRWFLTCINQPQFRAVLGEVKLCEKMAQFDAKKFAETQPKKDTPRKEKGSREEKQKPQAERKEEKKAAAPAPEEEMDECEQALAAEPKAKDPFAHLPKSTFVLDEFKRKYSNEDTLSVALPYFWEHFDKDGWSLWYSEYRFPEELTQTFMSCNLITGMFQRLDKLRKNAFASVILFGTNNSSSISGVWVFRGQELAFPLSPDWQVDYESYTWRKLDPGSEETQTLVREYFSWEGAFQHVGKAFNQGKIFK
UniProt P06733: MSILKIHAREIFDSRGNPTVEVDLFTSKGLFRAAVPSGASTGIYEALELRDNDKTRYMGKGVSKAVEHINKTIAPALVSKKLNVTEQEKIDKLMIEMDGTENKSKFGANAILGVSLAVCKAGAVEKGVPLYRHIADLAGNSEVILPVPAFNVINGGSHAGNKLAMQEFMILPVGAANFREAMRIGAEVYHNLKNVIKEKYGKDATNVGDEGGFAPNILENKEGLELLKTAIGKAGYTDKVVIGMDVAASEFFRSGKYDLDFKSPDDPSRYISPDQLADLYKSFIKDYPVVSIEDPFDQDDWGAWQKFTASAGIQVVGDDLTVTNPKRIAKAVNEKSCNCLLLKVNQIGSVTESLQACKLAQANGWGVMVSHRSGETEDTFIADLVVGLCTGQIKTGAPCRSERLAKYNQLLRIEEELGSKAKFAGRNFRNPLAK

Assay [1] concerns the target Flag-ASF1B (human) (UniProt Q9NVP2). Nature of the assay: affinity purification with mass spectrometry; whole-cell extracts of Flag-ASF1B-transfected HeLa cells; anti-Flag affinity sepharose or normal iso-type antibody, overnight at 4 °C; SDS-PAGE, silver staining, LC-MS.
Assay [2] shares this target. The description is as above. The source holds these as a separate data set.

Where two headings read alike, the source gives them in different places. No constants are given. Whether binding was seen depends on the method and setting. Binding seen in cells or lysates may run through a third protein. These calls come from enrichment with a bait or labelling near it, and not all partners need be listed.

As for “cyclin-dependent kinase 9 (from UniProt P50750 1-372)”, the binding entry in assay [1] is on record as “binds”. Still for that read-out and setting: the entry for “Serine/threonine-protein phosphatase 2A 65 kDa regulatory subunit A alpha isoform (from UniProt P30153 1-589)” is “binds”; for “Isoform 2 of Y-box-binding protein 3 (from UniProt P16989-2 1-303)” it is “binds”. “Elongation factor 1-gamma (from UniProt P26641 1-437)”: the binding entry in assay [1] is listed as “binds”.

For “Alpha-enolase (from UniProt P06733 1-434)”, in assay [1], the binding result is reported as “binds”.

B1: ATP-dependent RNA helicase DHX29 (protein, UniProt Q7Z478 1-1369)
chain: MGGKNKKHKAPAAAVVRAAVSASRAKSAEAGIAGEAQSKKPVSRPATAAAAAAGSREPRVKQGPKIYSFNSTNDSSGPANLDKSILKVVINNKLEQRIIGVINEHKKQNNDKGMISGRLTAKKLQDLYMALQAFSFKTKDIEDAMTNTLLYGGDLHSALDWLCLNLSDDALPEGFSQEFEEQQPKSRPKFQSPQIQATISPPLQPKTKTYEEDPKSKPKKEEKNMEVNMKEWILRYAEQQNEEEKNENSKSLEEEEKFDPNERYLHLAAKLLDAKEQAATFKLEKNKQGQKEAQEKIRKFQREMETLEDHPVFNPAMKISHQQNERKKPPVATEGESALNFNLFEKSAAATEEEKDKKKEPHDVRNFDYTARSWTGKSPKQFLIDWVRKNLPKSPNPSFEKVPVGRYWKCRVRVIKSEDDVLVVCPTILTEDGMQAQHLGATLALYRLVKGQSVHQLLPPTYRDVWLEWSDAEKKREELNKMETNKPRDLFIAKLLNKLKQQQQQQQQHSENKRENSEDPEESWENLVSDEDFSALSLESANVEDLEPVRNLFRKLQSTPKYQKLLKERQQLPVFKHRDSIVETLKRHRVVVVAGETGSGKSTQVPHFLLEDLLLNEWEASKCNIVCTQPRRISAVSLANRVCDELGCENGPGGRNSLCGYQIRMESRACESTRLLYCTTGVLLRKLQEDGLLSNVSHVIVDEVHERSVQSDFLLIILKEILQKRSDLHLILMSATVDSEKFSTYFTHCPILRISGRSYPVEVFHLEDIIEETGFVLEKDSEYCQKFLEEEEEVTINVTSKAGGIKKYQEYIPVQTGAHADLNPFYQKYSSRTQHAILYMNPHKINLDLILELLAYLDKSPQFRNIEGAVLIFLPGLAHIQQLYDLLSNDRRFYSERYKVIALHSILSTQDQAAAFTLPPPGVRKIVLATNIAETGITIPDVVFVIDTGRTKENKYHESSQMSSLVETFVSKASALQRQGRAGRVRDGFCFRMYTRERFEGFMDYSVPEILRVPLEELCLHIMKCNLGSPEDFLSKALDPPQLQVISNAMNLLRKIGACELNEPKLTPLGQHLAALPVNVKIGKMLIFGAIFGCLDPVATLAAVMTEKSPFTTPIGRKDEADLAKSALAMADSDHLTIYNAYLGWKKARQEGGYRSEITYCRRNFLNRTSLLTLEDVKQELIKLVKAAGFSSSTTSTSWEGNRASQTLSFQEIALLKAVLVAGLYDNVGKIIYTKSVDVTEKLACIVETAQGKAQVHPSSVNRDLQTHGWLLYQEKIRYARVYLRETTLITPFPVLLFGGDIEVQHRERLLSIDGWIYFQAPVKIAVIFKQLRVLIDSVLRKKLENPKMSLENDKILQIITELIKTENN
B1: the binding entry in assay [2] is given as “binds”.

B2: Malate dehydrogenase, mitochondrial (protein, UniProt P40926 25-338)
chain: AKVAVLGASGGIGQPLSLLLKNSPLVSRLTLYDIAHTPGVAADLSHIETKAAVKGYLGPEQLPDCLKGCDVVVIPAGVPRKPGMTRDDLFNTNATIVATLTAACAQHCPEAMICVIANPVNSTIPITAEVFKKHGVYNPNKIFGVTTLDIVRANTFVAELKGLDPARVNVPVIGGHAGKTIIPLISQCTPKVDFPQDQLTALTGRIQEAGTEVVKAKAGAGSATLSMAYAGARFVFSLVDAMNGKEGVVECSFVKSQETECTYFSTPLLLGKKGIEKNLGIGKVSSFEEKMISDAIPELKASIKKGEDFVKTLK
With B2, the binding entry in assay [2] is listed as “binds”.

B3: Sjoegren syndrome/scleroderma autoantigen 1 (protein, UniProt O60232 1-199)
chain: MALNGAEVDDFSWEPPTEAETKVLQARRERQDRISRLMGDYLLRGYRMLGETCADCGTILLQDKQRKIYCVACQELDSDVDKDNPALNAQAALSQAREHQLASASELPLGSRPAPQPPVPRPEHCEGAAAGLKAAQGPPAPAVPPNTDVMACTQTALLQKLTWASAELGSSTSLETSIQLCGLIRACAEALRSLQQLQH
Take B3: in assay [2], the binding result is listed as “binds”.

B4: Fork head box protein F1 (protein, UniProt Q12946 1-379)
chain: MSSAPEKQQPPHGGGGGGGGGGGAAMDPASSGPSKAKKTNAGIRRPEKPPYSYIALIVMAIQSSPTKRLTLSEIYQFLQSRFPFFRGSYQGWKNSVRHNLSLNECFIKLPKGLGRPGKGHYWTIDPASEFMFEEGSFRRRPRGFRRKCQALKPMYSMMNGLGFNHLPDTYGFQGSAGGLSCPPNSLALEGGLGMMNGHLPGNVDGMALPSHSVPHLPSNGGHSYMGGCGGAAAGEYPHHDSSVPASPLLPTGAGGVMEPHAVYSGSAAAWPPSASAALNSGASYIKQQPLSPCNPAANPLSGSLSTHSLEQPYLHQNSHNAPAELQGIPRYHSQSPSMCDRKEFVFSFNAMASSSMHSAGGGSYYHQQVTYQDIKPCVM
As for B4, the binding result in assay [2] is reported as “binds”.
